# Laboratory results taken from PubChem BioAssay AID540275 (National Center for Advancing Translational Sciences (NCATS), 2011).
# Sequences of proteins named here, by UniProt entry; tags and fusion partners are left off.
# UniProt Q8NER1, whole entry, looked up: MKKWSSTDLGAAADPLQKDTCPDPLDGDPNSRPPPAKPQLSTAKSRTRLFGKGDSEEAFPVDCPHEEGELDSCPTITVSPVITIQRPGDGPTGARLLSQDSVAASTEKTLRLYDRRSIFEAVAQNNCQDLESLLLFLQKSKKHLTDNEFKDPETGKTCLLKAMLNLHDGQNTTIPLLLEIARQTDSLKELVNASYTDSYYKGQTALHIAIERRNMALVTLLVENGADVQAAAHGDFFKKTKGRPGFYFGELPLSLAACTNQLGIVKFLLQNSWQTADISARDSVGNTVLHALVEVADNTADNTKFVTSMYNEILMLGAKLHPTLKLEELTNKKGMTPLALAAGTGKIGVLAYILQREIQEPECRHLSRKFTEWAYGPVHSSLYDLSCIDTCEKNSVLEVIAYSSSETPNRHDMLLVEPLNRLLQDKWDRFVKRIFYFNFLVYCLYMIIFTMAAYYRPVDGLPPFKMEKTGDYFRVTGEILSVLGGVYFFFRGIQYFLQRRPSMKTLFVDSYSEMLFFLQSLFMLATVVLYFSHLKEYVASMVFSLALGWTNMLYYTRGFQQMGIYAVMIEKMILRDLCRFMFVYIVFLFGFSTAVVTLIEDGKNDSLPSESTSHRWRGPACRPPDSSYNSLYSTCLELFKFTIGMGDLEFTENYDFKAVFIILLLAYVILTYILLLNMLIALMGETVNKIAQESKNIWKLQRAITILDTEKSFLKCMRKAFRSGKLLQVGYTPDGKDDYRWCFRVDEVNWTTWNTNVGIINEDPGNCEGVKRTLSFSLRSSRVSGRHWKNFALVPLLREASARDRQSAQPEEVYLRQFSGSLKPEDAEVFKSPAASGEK
# The campaign covered roughly 320,000 compounds. About 620 (0.19%) were called active. This list was built around the results that the source calls inconclusive (neither active nor inactive); the mix of calls is not that of the screen. Cut-off read from the data, not from the text of the source: active = activation above about 80%; inconclusive = between about 30% and that limit; inactive = weaker than that.
# Biological target: Transient receptor potential cation channel subfamily V member 1 (Homo sapiens) (UniProt Q8NER1)
# Experiment: HTS Assay for Compounds that Act as Agonists of the Vanilloid Receptor 1; note: 0% is about no effect
# Conditions: TRPV1-expressing cells, Fluo-8 calcium influx, agonist mode; at 8.33 µM, hits give high values
# Outline: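 TRPV1-expressing cells were cultured overnight at 35.5C and loaded with Fluo-8 calcium dye for 40 to 90 min at room temperature. After a 10 s baseline, compound was added and calcium influx was read kinetically for 3 min (ex 480/em 520 nm).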
row,Compound,activation
1,O=C(Nc1cccnc1)c1cc(-c2ccccc2)on1,inconclusive: 49.4%
2,Cc1ccc(OC(C)C(=O)Nc2ccc(S(=O)(=O)N3CCOCC3)cc2)cc1 (stereo not drawn),inconclusive: 32.5%
3,O=[N+]([O-])c1ccc(O)c(Nc2ncnc3ccc(Br)cc23)c1,inactive: -1.12%
4,COc1cc(N)c(Cl)cc1NC(=O)c1ccccc1,inactive: 0.596%
5,CCc1cc(=O)oc2c3c(cc(OCC(=O)NCc4cccnc4)c12)OC(C)(C)CC3,inconclusive: 46.2%
6,Cc1ccccc1NC(=O)c1ccc(S(=O)(=O)N(C)C)cc1,inactive: 0.852%
7,Cc1cc(Cl)c(C)c(S(=O)(=O)N2CCN(CC(=O)N3CCOCC3)CC2)c1Cl,inconclusive: 38.9%
8,Cc1cccc(NC(=O)C(C)SCc2ccccc2)c1 (stereo not drawn),inconclusive: 36.4%
9,O=C(COC(=O)CCSc1ccccc1)Nc1ccc(F)cc1Cl,inconclusive: 30.5%
10,CC/C(=N\NC(=O)c1ccc(-c2ccccc2)cc1)C12CC3CC(CC(C3)C1)C2,inactive: 24%
11,CC(=O)Oc1ccc2occ(-c3ccccc3)c2c1,inconclusive: 39.6%
12,CCC(C)NC(=O)COc1ccc(Br)c(C)c1 (stereo not drawn),inconclusive: 36.1%
13,CCCCCCCC(=O)N/N=C/c1ccc(Br)cc1,inconclusive: 34.3%
14,O=C(NCc1ccncc1)C1CCN(S(=O)(=O)c2cc(Cl)ccc2Cl)CC1,inconclusive: 61.6%
15,O=C(Nc1nc2ccccc2[nH]1)c1cccc(S(=O)(=O)N2CCOCC2)c1,active: 80.2%
16,O=c1c(Cl)c(NCc2ccc(F)cc2Cl)cnn1C12CC3CC(CC(C3)C1)C2,inconclusive: 30.1%
17,Nc1ccccc1OCCOc1ccccc1N,inactive: 4.91%
18,Cc1ccccc1NC(=S)NNC(=O)c1ccoc1C,inactive: -1.24%
19,Cc1cc(C(=O)NC2CC(C)(C)Cc3c2cnn3-c2ccccc2)n(C)n1 (stereo not drawn),inconclusive: 47%
20,CC(NC(=O)C(=O)NCCc1c[nH]c2ccccc12)c1ccccc1 (stereo not drawn),inconclusive: 40.7%
21,Cc1ccc(SCC(=O)OC(C)C(=O)NCc2ccccc2)cc1C (stereo not drawn),inconclusive: 63.8%
22,O=C1OCc2cc(NC(=O)C3COc4ccccc4O3)ccc21 (stereo not drawn),inconclusive: 57.3%
23,CC(C)CCN1C(=O)c2ccc(C(=O)NCC3CCCO3)cc2C1=O (stereo not drawn),inconclusive: 46.1%
24,Cc1ccsc1/C=C1\CCc2ccccc2C1=O,inactive: 6.39%

row,Compound,activation
1,O=C(Nc1ccc(Cl)cc1)N1CCCN(c2ccc(C(F)(F)F)cc2[N+](=O)[O-])CC1,inconclusive: 36.2%
2,CC(NC(=O)CSc1cccc(C(F)(F)F)c1)c1ccccc1 (stereo not drawn),inconclusive: 58.7%
3,CCOc1ccc(N(C)S(=O)(=O)c2cc(-c3cc(C)no3)ccc2C(C)C)cc1,inconclusive: 46.9%
4,CCOC(=O)CNC(=S)N(Cc1ccco1)Cc1ccccc1Cl,inconclusive: 38.6%
5,C=CCNC(=S)N(Cc1ccccc1)Cc1ccccc1,inactive: 2.52%
6,O=[N+]([O-])c1cccc(NC(=S)NCc2ccncc2)c1,inconclusive: 33.3%
7,Cc1cc(C(=O)N/N=C\c2cc(C(C)(C)C)c(O)c(C(C)(C)C)c2)n[nH]1,inconclusive: 45.9%
8,O=C(N/C(=C/c1ccccc1)C(=O)N1CCCCCC1)c1ccccc1,inconclusive: 49.1%
9,COc1ccc(-n2c(C)nc(=O)c(-c3ccccc3)c2C)cc1,inactive: 0.862%
10,CCCCCCCNC(=O)C1(CC2CC(c3ccc(Cl)cc3)=NO2)CCN(C(=O)c2ccccc2)CC1 (stereo not drawn),inactive: -2.18%
11,COCCCNC(=O)c1c(N)n(-c2ccccc2)c2nc3ccccc3nc12,inconclusive: 31.1%
12,N=C1/C(=C\c2coc3ccccc3c2=O)C(=O)N=C2SC=CN12,inconclusive: 65.5%
13,COc1ccccc1CN1C(=O)CN(C2CCCCCC2)C(=O)C1c1ccc(F)cc1 (stereo not drawn),inconclusive: 48%
14,O=C(CSc1ccccc1)N1CCCC(Nc2ccccc2)C1 (stereo not drawn),inconclusive: 78.4%
15,CCOC(=O)C1(Cc2ccccc2)CCN(Cc2csc(C(C)=O)c2)CC1,inactive: 6.34%
16,Cc1cc(C)c(S(=O)(=O)N/N=C/c2ccc([N+](=O)[O-])o2)c(C)c1,inactive: -6.05%
17,CCC(C)(C)n1nnnc1C(c1ccc2ncccc2c1)N1CCN2CCCC2C1 (stereo not drawn),inactive: 0.825%
18,O=c1ccc(-c2ccccc2)nn1Cc1ccccc1F,inconclusive: 62.2%
19,Cc1nc(NC(=O)c2ccc3c(c2)OCO3)ccc1Br,inconclusive: 68.8%
20,Cc1cccc(NC(=O)CCc2ccccc2)c1,inconclusive: 39.6%
21,O=C(NCCc1ccccc1)c1ccc(Cl)nc1,inconclusive: 36.3%
22,C=CCn1c(=O)[nH]c2nc3cc(N=CN(C)C)c(C)cc3nc2c1=O,inactive: 26.9%
23,Cc1cccc(N2CCN(C(=O)N3CCCCC3)CC2)c1C,active: 82%
24,Cc1cc(C)cc(C(=O)Nc2cccnc2)c1,inconclusive: 32.1%

# Ordered by SMILES length (ascending): 6 of the compounds above
row,Compound,activation
4,COc1cc(N)c(Cl)cc1NC(=O)c1ccccc1,inactive: 0.596%
23,Cc1cccc(N2CCN(C(=O)N3CCCCC3)CC2)c1C,active: 82%
2,CC(NC(=O)CSc1cccc(C(F)(F)F)c1)c1ccccc1 (stereo not drawn),inconclusive: 58.7%
12,N=C1/C(=C\c2coc3ccccc3c2=O)C(=O)N=C2SC=CN12,inconclusive: 65.5%
14,O=C(NCc1ccncc1)C1CCN(S(=O)(=O)c2cc(Cl)ccc2Cl)CC1,inconclusive: 61.6%
10,CC/C(=N\NC(=O)c1ccc(-c2ccccc2)cc1)C12CC3CC(CC(C3)C1)C2,inactive: 24%

# (cont.)

row,Compound,activation
1,O=C(O)C1Nc2c(cccc2C(F)(F)F)C2C=CCC12 (stereo not drawn),inactive: -3.37%
2,COc1cc(OC)cc(C(=O)NC2=NCCS2)c1,inactive: 1.26%
3,CC(CCc1ccccc1)NC(=O)COC(=O)CC1CC2CCC1C2 (stereo not drawn),inconclusive: 32.6%
4,C/C(=N/NC(=O)C(O)(c1ccccc1)c1ccccc1)c1ccc([N+](=O)[O-])o1,inconclusive: 54.3%
5,CCN1CCN(CCC(=O)Nc2ccccc2C)CC1,inactive: 1.29%
6,Fc1ccc(NC(=S)NCc2ccccn2)cc1,inactive: -0.496%
7,Cc1c(NP(=O)(c2ccc(Br)cc2)c2ccc(Br)cc2)c(=O)n(-c2ccccc2)n1C,inconclusive: 47.5%
8,C=CCn1c(N)c(C(=O)OC(C)(C)C)c2nc3ccccc3nc21,inconclusive: 48.3%
9,N#C/C(=C/c1ccco1)c1nc2ccccc2s1,inconclusive: 40.5%
10,Cc1ccc(OCCn2ncc3ccccc3c2=O)c(C)c1,inconclusive: 35%
11,CCCn1nnc(NC(=O)c2ccc(-c3cccc(Cl)c3)o2)n1,inconclusive: 32.7%
12,Cc1cc(C)nc(NC2=NCC(=O)N2c2cc(Cl)cc(Cl)c2)n1,inactive: 0.317%
13,c1ccc(CCNc2nc3ccccc3s2)cc1,inconclusive: 52.6%
14,Cc1cc(OCC(=O)OCC(=O)N2CCc3ccccc3C2)ccc1Cl,inconclusive: 30.1%
15,CCOC(=O)CSc1ccc(-c2nc3ccccc3[nH]2)cn1,inconclusive: 36.9%
16,CC(C)(C)c1ccc(C(=O)NCc2cccnc2)cc1,inconclusive: 34%
17,Cc1ccc2cccc(NC(=S)NC(=O)c3ccnn3C)c2n1,inconclusive: 65.9%
18,Cc1ccc(S(=O)(=O)Oc2ccc(/C=N/NC(=O)c3c(Cl)cnn3C)cc2)cc1,inconclusive: 52%
19,COc1cc(/C(C)=N/NC(=O)c2cccc(S(=O)(=O)N3CCCC3)c2)cc(OC)c1OC,inconclusive: 51.1%
20,O=C(CN(Cc1ccccc1)S(=O)(=O)c1ccc(Br)cc1)NCC1CCCO1 (stereo not drawn),inconclusive: 37.2%
21,O=C(NCCc1ccccc1)c1ccc2c(c1)N(Cc1ccccc1)CCS2,inconclusive: 59.4%
22,C=CCN1C(=O)c2cccc3c(N4CCCCC4)ccc(c23)C1=O,inactive: 23.2%
23,CC1(c2nnc(Cc3ccccc3)o2)CC(c2ccccc2F)=NO1 (stereo not drawn),inconclusive: 30.8%
24,COc1cccc(C(=O)CSc2nnnn2C2CCCCC2)c1,inconclusive: 37.9%

row,Compound,activation
1,COc1ccc(O)c(/C=N/NC(=O)c2ccc(OCc3cccc(Br)c3)cc2)c1,inactive: 0.24%
2,COc1ccccc1N1CC(C)(C)C(=O)N(C(=O)c2ccc(C)cc2)C1=S,inconclusive: 36.8%
3,COc1ccc(NC(=O)NCCCN2CCc3ccccc3C2)cc1,inconclusive: 32.5%
4,COc1ccc(S(=O)(=O)N2CCCCC2)cc1NC(=O)C1CCCC1,inactive: 10.5%
5,O=C(OCc1ccccc1)c1cn(-c2ccccc2)nc1-c1ccncc1,inconclusive: 30.3%
6,O=C(COC(=O)c1ccccc1Br)NCc1ccccc1,inconclusive: 35.8%
7,C=Cc1cccc(NC(=O)COc2ccccc2)c1,inconclusive: 37.4%
8,O=c1oc2ccccc2n1Cc1cccc(F)c1,inconclusive: 33.3%
9,CC1CN(S(=O)(=O)c2cccc(C(=O)NCCC3=CCCCC3)c2)CC(C)O1 (stereo not drawn),inconclusive: 39%
10,Cc1ccc(N2CCN(C(=O)c3ccccc3F)CC2)c(C)c1,inconclusive: 45.6%
11,CCCC1C(=O)Nc2ccccc2N1C(=O)c1ccc(C(C)(C)C)cc1 (stereo not drawn),inconclusive: 36.8%
12,O=c1cc(-c2ccc(O)cc2)oc2c1ccc1ccccc12,inconclusive: 43.6%
13,CCOC(=O)c1sc(NC(=S)NC(=O)CC(C)C)cc1C,inconclusive: 37.6%
14,O=C(Nc1cccc(F)c1)N1CCN(C/C=C/c2ccccc2)CC1,inconclusive: 35.6%
15,Cc1ccccc1CSCCNC(=O)CSCc1ccc([N+](=O)[O-])cc1,inconclusive: 30%
16,CCc1ccc(/C(C)=N/NC(=O)c2ccc(-n3cnnn3)cc2)cc1,inconclusive: 50.6%
17,Cc1nn(-c2ccccc2)c(N2CCCC2)c1/C=N/NC(=O)c1cc2ccccc2cc1O,inactive: 4.4%
18,COC(=O)CSc1ccc(-c2nc3ccc(C)cc3[nH]2)cn1,inconclusive: 34%
19,O=C(Cn1c(C(F)(F)F)nc2ccccc21)c1ccc(Cl)cc1,inconclusive: 33.6%
20,CCOP(=O)(OCC)C(Nc1ccc(F)cc1)c1ccccc1 (stereo not drawn),inactive: 7.49%
21,Cc1nn(-c2ccccc2)c2nc(-c3ccncc3)cc(C(=O)NCc3ccco3)c12,inconclusive: 40.4%
